At least one compound was matched to its structure with a doubt left.
Test system: relapsed multiple myeloma
Test: Phase 2 and 3 clinical trials of bortezomib in relapsed multiple myeloma, stratified by sigma score
Type: in vivo, human
Settings: dexamethasone treated group
Description: We analyzed gene expression data from 135 patients with relapsed multiple myeloma who participated in Phase II or III trials of bortezomib (˜2007; Mulligan, G., Mitsiades, et al. (2007) Gene expression profiling and correlation with outcome in clinical trials of the proteasome inhibitor bortezomib. Blood 109, 3177-3188) and determined the sigma score for each cancer. The sigma score for each cancer (prior to treatment) was computed by comparing the expression of each 19S subunit (except PSMC4, which was not included in the analysis for technical reasons) in each cancer with the average expression of that subunit in the total set of cancers (reference level) and determining the number of standard deviations by which each expression level differed from the reference level.
Methods details: re-treatment gene expression data from relapsed multiple myeloma patients undergoing clinical trials with bortezomib were downloaded from GSE9782 (34). Gene expression data was RMA normalized and log transformed. Sigma scores were calculated from all probes. […] For each group, the time to relapse from bortezomib treatment was plotted as a Kaplan-Meier plot. P-value was calculated using Wilcoxon test.

SMILES: C[C@@H]1C[C@H]2[C@@H]3CCC4=CC(=O)C=C[C@]4(C)[C@@]3(F)[C@@H](O)C[C@]2(C)[C@@]1(O)C(=O)CO [dexamethasone]
- change in response with suppression of 19S subunit(s): did not induce a significant change in response

— US11092602B2, “Methods and compositions relating to proteasome inhibitor resistance” (Whitehead Institute for Biomedical Research, priority 2015, dated 2021)
